Measurements: patent publication US20140349310A1
No constants are given. Whether binding was seen depends on the method and setting. Some results given as binding are weak or reduced against the parent protein; the word gives no strength.

Target: cynomolgus monkey c-Met expressed on NIH 3T3 cells (cynomolgus monkey)
Experiment: FACS on live cells

binding: binds
B1: anti-c-Met monoclonal antibody OptD11 (mouse IgG1 subtype) (antibody, V domains shown)
VH: EVQLQQSGPELVKPGASVRISCKASGYTFTSRYIHWMKQRPGQGLEWIGWIYPVTGDTYYNEKFKGKATLTSDKSSSTAYMQISSLTSDDSAVYFCARGGGMFYYWGQGTLVTVSA
VL: ETTVTQSPALMAASPGEKVTITCSVSSSISSTNLHWYQQKSETSPKPWIYGTSNLASGVPVRFGGSGSGTSYSLTISSMEAEDAATYYCQQWSSYPYTFGGGTKLEIKR
